Reference: ChEMBL document CHEMBL4190349, “Synthesis and 2D-QSAR studies of neolignan-based diaryl-tetrahydrofuran and -furan analogues with remarkable activity against Trypanosoma cruzi and assessment of the trypanothione reductase activity” (Eur J Med Chem, 2017)

By UniProt entry, the sequences of proteins in these tests, tags left out. Where a name states a change or a piece, a line headed by the entry shows the natural chain unless it says otherwise.
UniProt P28593: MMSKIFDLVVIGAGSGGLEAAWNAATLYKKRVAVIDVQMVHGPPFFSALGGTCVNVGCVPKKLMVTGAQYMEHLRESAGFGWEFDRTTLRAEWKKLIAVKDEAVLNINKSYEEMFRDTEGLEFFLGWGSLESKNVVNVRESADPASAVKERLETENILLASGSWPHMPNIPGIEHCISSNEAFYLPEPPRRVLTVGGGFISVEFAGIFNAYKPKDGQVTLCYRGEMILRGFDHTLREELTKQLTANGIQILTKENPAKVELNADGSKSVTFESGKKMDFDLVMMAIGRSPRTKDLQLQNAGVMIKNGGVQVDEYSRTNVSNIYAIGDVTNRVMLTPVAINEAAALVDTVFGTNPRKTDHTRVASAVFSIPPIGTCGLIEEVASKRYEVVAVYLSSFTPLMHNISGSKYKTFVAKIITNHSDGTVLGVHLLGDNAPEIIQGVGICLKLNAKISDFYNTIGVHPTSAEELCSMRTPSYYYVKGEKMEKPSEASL

Molecular target: Trypanothione reductase (Trypanosoma cruzi, UniProt P28593)
Assay: Inhibition of Trypanosoma cruzi trypanothione reductase expressed in Escherichia coli BL21 (DE3) pre-incubated for 30 mins using TS2 substrate in presence of NADPH by colorimetric microplate assay
Summary of the method: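 Recombinant T. cruzi TR expressed in E. coli BL21DE3 and affinity-purified. Assay: TcTR 5 m-unit, 40 mM HEPES pH 7.5, 0.15 mM NADPH, 1 mM EDTA, 1 µM TS2, compounds in DMSO (final 1% DMSO control). Pre-incubated 30 min at 27°C, then DTNB added, and A412 read every 5 min for 30 min.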

Structure (SMILES): CN(C)CCCN1c2ccccc2CCc2ccc(Cl)cc21 [CLOMIPRAMINE]
- IC50: 15.2 µM
